The values below come from PMC9317006, “A Fiber-Based SPR Aptasensor for the In Vitro Detection of Inflammation Biomarkers”.

Construct, isoform or probe ends are uncertain for at least one entry. For some assays here: Where a protein sequence is shown, tags need not be part of it. Bounds are passed on as bounds.

Series [1] concerns the target T1, C-reactive protein (CRP) (human) (UniProt P02741).
T1 sequence (looked up, limits assumed): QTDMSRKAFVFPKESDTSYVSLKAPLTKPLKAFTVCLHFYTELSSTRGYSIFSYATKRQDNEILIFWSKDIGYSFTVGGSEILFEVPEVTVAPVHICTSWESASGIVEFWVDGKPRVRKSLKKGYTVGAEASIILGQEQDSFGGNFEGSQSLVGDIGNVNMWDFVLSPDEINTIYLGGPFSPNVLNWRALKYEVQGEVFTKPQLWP
Description: fiber-based SPR. The conditions noted are these: 100 nM protein; 3' thiol; Detection buffer: 25 mM Tris base, 192 mM glycine, 0.05% Tween 20, 0.1% BSA, 2 mM CaCl2, 100 mM NaCl, pH 8.0; binding temperature not stated (RI calibration at 20 C); recombinant protein; single-stranded DNA.

The target in series [2] is cardiac troponin I (cTn-I) (human) (UniProt P19429). The series is described as follows: fiber-based SPR. The conditions noted are these: 100 nM protein; 3' thiol; Detection buffer: 25 mM Tris base, 192 mM glycine, 0.05% Tween 20, 0.1% BSA, 2 mM CaCl2, 100 mM NaCl, pH 8.0; binding temperature not stated (RI calibration at 20 C); recombinant protein; single-stranded DNA.

Take “CGAAGGGGATTCGAGGGGTGATTGCGTGCTCCATTTGGTGTTTTT [cTn-I aptamer]”: in series [1], the binding signal (% of specific response) is less than 20. For “GGCAGGAAGACAAACACGATGGGGGGGTATGATTTGATGTGGTTGTGCATGATCGTGGTCTGTGGTGCTGTTTTT [CRP aptamer]”, the binding signal (% of specific response) in series [2] is less than 20.
